Source: patent US8481538B2, “Heterocyclic inhibitors of c-Met and uses thereof” (Vertex Pharmaceuticals Incorporated, priority 2006, dated 2013)

Protein sequences, listed by entry. Tags and fused reporters are not part of them. Residues count along the entry.
UniProt P08581, 25-1390 limits assumed: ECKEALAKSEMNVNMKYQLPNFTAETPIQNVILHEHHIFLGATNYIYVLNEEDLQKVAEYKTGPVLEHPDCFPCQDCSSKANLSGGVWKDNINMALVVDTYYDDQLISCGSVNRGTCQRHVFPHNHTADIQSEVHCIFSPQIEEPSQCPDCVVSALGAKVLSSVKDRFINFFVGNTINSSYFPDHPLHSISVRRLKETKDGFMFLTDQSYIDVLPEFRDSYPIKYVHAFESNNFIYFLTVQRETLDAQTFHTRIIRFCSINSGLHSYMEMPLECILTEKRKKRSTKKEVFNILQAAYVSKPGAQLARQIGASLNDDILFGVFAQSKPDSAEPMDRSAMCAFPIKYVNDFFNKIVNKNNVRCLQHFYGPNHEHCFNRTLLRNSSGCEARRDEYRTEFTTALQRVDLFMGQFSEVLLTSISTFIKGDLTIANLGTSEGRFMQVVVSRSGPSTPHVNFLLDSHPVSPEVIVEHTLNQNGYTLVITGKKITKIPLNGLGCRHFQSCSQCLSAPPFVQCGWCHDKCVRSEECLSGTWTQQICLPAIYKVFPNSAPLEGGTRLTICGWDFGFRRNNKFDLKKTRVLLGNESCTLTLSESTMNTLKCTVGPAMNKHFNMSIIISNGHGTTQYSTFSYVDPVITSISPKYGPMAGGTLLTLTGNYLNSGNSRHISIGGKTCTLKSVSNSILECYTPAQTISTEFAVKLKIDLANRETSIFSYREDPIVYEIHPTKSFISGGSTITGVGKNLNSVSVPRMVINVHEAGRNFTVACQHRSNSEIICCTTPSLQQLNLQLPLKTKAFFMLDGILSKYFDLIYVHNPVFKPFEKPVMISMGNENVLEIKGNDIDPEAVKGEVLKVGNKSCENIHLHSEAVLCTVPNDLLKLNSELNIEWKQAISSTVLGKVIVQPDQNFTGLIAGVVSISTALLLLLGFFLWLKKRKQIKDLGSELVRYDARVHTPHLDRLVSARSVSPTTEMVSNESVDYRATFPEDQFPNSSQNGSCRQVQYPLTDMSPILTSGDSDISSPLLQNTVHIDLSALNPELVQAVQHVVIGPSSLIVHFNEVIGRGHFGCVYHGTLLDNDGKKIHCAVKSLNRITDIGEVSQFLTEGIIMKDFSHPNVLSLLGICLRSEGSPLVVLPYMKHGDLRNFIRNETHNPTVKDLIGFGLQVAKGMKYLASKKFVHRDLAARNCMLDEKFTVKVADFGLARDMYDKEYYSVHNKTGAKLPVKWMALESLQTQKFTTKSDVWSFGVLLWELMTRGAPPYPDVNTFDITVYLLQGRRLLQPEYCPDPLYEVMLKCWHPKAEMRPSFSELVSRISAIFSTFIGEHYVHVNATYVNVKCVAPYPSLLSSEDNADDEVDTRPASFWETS

Target: c-Met (Homo sapiens, UniProt P08581)
Assay: Ki determination for the inhibition of c-Met (standard radiometric kinase assay)
Details: read-out: c-Met Ki; radiometric 33P-ATP assay, 1.0 nM c-Met, 35 μM ATP, 0.5 mg/mL polyE4Y, competitive tight-binding fit
Protocol: Ki Determination for the Inhibition of c-Met
Compounds of the invention were screened for their ability to inhibit c-Met kinase activity using a standard radiometric assay. Briefly, in this kinase assay the transfer of the terminal ^33P-phosphate in ^33P-ATP to substrate polyE4Y is interrogated. The assay was carried out in 96-well plates to a final volume of 100 μL per well containing 1.0 nM c-Met, 100 mM HEPES (pH 7.5), 10 mM MgCl2, 25 mM NaCl, 0.01% BSA, 1 mM DTT, 0.5 mg/mL polyE4Y, and 35 μM ATP. Accordingly, compounds of the invention were dissolved in DMSO to make 10 mM initial stock solutions. Serial dilutions in DMSO were then made to obtain the final solutions for the assay. A 1.5 μL aliquot of DMSO or inhibitor in DMSO was added to each well. The reaction was initiated by the addition of ^33P-ATP and polyE4Y (obtained from Sigma). After 20 min, the reaction was quenched with 50 μL of 30% trichloroacetic acid (TCA) containing 4 mM ATP. […] Following the addition of 50 μL of Ultimate Gold™ high efficiency scintillant (Packard Bioscience), the samples were counted in a Packard TopCount NXT Microplate Scintillation and Luminescence Counter (Packard BioScience). The Ki values were calculated using Microsoft Excel Solver macros to fit the data to the kinetic model for competitive tight-binding inhibition. […]

C[C@@H](NC(=O)c1nc(-c2cnn(C3CCNCC3)c2)cnc1N)c1nnc2sc(Nc3cccc(Cl)c3)nn12
Ki: < 0.25 µM

The match of structure and compound is tentative.
